Measurements as given in PMC9861123.
Construct, isoform or probe ends are uncertain for at least one entry. Negatives hold for the conditions tested.

tested on: TaHsfA1 (Triticum aestivum); assay: EMSA; conditions: LightShift Chemiluminescent EMSA Kit, manufacturer's instructions; 10-, 100- and 1000-fold unlabeled competitor; pH and temperature not stated; recombinant protein; protein details: N-terminal GST (pGEX-4T-1); label: 5'-biotin

Does “AAGTGATATTTGAGAGAAAATTCCTTATTTGACACTATCTTAA (double strand) [HSE3 probe]” bind?
Result: no binding

Does “GCGCCGCGCGGCCCAGAACCTTCCGCCCCGGCCCCCGTCC (double strand) [HSE1 probe]” bind?
Result: binds

Does “CGGCCCCGGCGTCCAGAAGCTTCCGAGCCGGCCGGTCACG (double strand) [HSE2 probe]” bind?
Result: binds
